For some of these results: Weaker means in comparison with the reference protein, sequence or condition of that experiment. For some of these results: For at least one entry, the source does not settle the construct or the ends of the probe. For some of these results: At least one verdict rests on a figure or table, not on a statement of the authors.
How the values were obtained:
[1] = target: A13DBD WT (mouse (murine)) (UniProt Q62424); assay: NMR; settings: complex used for methyl assignment, NMR complex: 20 mM NaPO4 pH 6.0, 5 mM MgCl2, 10% D2O, 310 K, recombinant protein, residues 320-386, protein details: His-tag removed by thrombin, letters put together from the description
[2] = target: A13DBD WT (mouse (murine)) (UniProt Q62424); assay: competition with a labelled probe; settings: 1 uM or more needed to displace consensus, 400 nM protein; recombinant protein; residues 320-386; protein details: His-tag removed by thrombin; label: unlabeled competitor; folded or branched DNA

Amino acid sequences for entries named in this document (tags omitted). Residues count along the entry.
UniProt Q62424, 320-386: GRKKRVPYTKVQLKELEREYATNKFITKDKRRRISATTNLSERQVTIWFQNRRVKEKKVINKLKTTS

## CAAATAAAATC / GATTTUATTTG [11-mer T6*dU (T17U)]
[1]; deoxyuridine at T6*
  binding result: binds

## CAAAUAAAATC / GATTTTATTTG [11-mer T5U]
[1]; deoxyuridine at T5 (DNA strand)
  binding result: binds

## TGACTGACTGACTGCCCCCCAGTCAG [Scrambled]
[2]
  binding result: binds more weakly

## CAAATAAAATC / GATTTTAUTTG [11-mer T4*dU (T19U)]
[1]; deoxyuridine at T4*
  binding result: binds

Reference: paper PMC3148250
